The results in this text go back to PMC11091121.

The chains behind the UniProt entries cited, without tags or fusion partners. Residues count along the entry.
UniProt Q8C6L5, 147-507: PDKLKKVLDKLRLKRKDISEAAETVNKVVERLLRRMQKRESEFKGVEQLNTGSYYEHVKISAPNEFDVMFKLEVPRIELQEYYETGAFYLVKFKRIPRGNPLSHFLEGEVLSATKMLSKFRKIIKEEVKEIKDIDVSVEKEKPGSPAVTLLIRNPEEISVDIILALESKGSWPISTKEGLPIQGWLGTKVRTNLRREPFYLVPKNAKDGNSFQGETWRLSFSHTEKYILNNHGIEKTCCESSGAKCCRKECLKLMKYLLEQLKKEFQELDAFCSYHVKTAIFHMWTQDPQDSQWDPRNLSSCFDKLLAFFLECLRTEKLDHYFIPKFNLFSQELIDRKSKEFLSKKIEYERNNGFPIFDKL
UniProt Q8C6L5, whole entry: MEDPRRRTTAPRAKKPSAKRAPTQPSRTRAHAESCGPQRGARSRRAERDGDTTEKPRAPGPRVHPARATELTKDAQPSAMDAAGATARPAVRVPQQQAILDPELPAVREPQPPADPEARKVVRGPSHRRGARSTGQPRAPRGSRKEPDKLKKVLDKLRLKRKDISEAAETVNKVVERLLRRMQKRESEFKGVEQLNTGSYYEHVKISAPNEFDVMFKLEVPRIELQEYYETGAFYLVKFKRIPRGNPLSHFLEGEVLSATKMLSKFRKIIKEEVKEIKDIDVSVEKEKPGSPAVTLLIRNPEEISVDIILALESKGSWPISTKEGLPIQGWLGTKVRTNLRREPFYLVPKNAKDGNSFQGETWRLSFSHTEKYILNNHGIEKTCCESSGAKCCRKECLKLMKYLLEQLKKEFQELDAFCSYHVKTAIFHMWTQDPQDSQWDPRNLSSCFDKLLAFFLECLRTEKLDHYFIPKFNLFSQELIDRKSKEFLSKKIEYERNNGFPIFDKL
UniProt Q8C6L5, 147-507 E211Q/D213N: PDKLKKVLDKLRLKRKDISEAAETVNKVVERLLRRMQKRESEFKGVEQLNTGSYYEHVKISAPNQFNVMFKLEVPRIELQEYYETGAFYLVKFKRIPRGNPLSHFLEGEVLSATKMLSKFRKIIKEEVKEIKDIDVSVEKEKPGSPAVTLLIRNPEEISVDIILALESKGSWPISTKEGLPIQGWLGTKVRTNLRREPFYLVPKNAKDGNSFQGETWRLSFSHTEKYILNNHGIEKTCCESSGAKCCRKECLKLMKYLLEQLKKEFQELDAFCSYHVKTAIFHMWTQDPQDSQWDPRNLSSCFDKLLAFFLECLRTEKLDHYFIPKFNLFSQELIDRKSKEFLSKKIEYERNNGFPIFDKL

Data set [1] has as its target WT-mcGAScat (mouse) (UniProt Q8C6L5). In words: fluorescence anisotropy. Particulars: FA: 5 nM FAM-dsDNA, as previously reported (reaction buffer likely 25 mM Tris-acetate pH 7.4, 125 mM KAc, 5 mM MgAc2, 1 mM TCEP, 5% glycerol, 25 C), recombinant protein, residues 147-507, label: FAM; for binding result: length-dependent binding, value not in material. (In general: Polarisation of emitted light reports the rotation of a fluorescent probe.)

A further data set addresses mcGASFL (mouse) (UniProt Q8C6L5). In words: fluorescence anisotropy. Particulars: length-dependent binding, FA: 5 nM FAM-dsDNA, as previously reported (reaction buffer likely 25 mM Tris-acetate pH 7.4, 125 mM KAc, 5 mM MgAc2, 1 mM TCEP, 5% glycerol, 25 C), recombinant protein, residues 1-507, label: FAM.
For data set [2], the target named is QN-mcGAScat E211Q,D213N (mouse) (UniProt Q8C6L5). Put plainly: crystal structure. The conditions noted are these: crystals: 0.2 M ammonium acetate, 32% MPD, 0.1 M Bis-Tris pH 6.5, 4 C, recombinant protein, residues 147-507.
Data set [3] deals with WT-mcGAScat (mouse) (UniProt Q8C6L5). In words: crystal structure. The conditions noted are these: pppGpG, 2 Mn2+; crystals: 0.2 M ammonium acetate, 32% MPD, 0.1 M Bis-Tris pH 6.5, 4 C; recombinant protein; residues 147-507.

Construct, isoform or probe ends are uncertain for at least one entry. At least one verdict was read from the data and is not stated in words by the source.

On to “TAAGACACGATGCGATAAAATCTGTTTGTAAAATTTATT (double strand) [39-bp FAM-dsDNA]”, for which the binding result in the data set with WT-mcGAScat (mouse) [1] and in the data set with mcGASFL (mouse) (value not in material) was “binds” throughout.
“TAAGACACGATGCGATAAAA (double strand) [20-bp FAM-dsDNA]”: the binding result with WT-mcGAScat (mouse) [1] and with mcGASFL (mouse) (value not in material) was “binds” each time.
For orientation: Kd means the constant that tells how readily two partners part at equilibrium. Consider “TAAGACACGATGCGATAAAATCTGTTTGTAAAATTTATTAAGGGTACAAATTGCCCTAGCACAGGGGTGGGG (double strand) [72-bp FAM-dsDNA]”, for which the Kd in the data set with WT-mcGAScat (mouse) [1] came to 286 nM. Moreover, in the data set with mcGASFL (mouse) (value not in material (or 286.42 nM if the excerpt row is the FL block)), the binding result was “binds”.
Consider “ATCTGTACATGTACAGAT (double strand) [18-bp palindromic dsDNA]”, for which the binding result was “binds” in data set [2] (GTP/GTP, Mg2+); “binds” in data set [2] (ITP/GTP); “binds” with WT-mcGAScat (mouse) [3].
